Source: patent US20230399403A1 (BIONTECH, published 2023)
Results are given in words; binding and its absence hold for the method and conditions named. Some results given as binding are weak or reduced against the parent protein; the word gives no strength. Each block holds one binder with its values, some of them ahead of it.

Protein sequences, listed by entry. Tags and fused reporters are not part of them. Lines headed by an entry give the natural chain unless they say otherwise; changes in a name come on top.
UniProt Q15116: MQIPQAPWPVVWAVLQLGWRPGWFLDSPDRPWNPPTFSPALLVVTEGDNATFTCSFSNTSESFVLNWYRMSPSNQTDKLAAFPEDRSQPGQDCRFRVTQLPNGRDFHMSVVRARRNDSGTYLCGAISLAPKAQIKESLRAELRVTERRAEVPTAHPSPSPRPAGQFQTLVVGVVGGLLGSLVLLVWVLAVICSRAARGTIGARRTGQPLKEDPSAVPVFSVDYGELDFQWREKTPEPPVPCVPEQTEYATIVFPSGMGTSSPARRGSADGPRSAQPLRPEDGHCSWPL

Biological target: full-length human PD-1 expressed on cells (human) (UniProt Q15116)
Assay: flow cytometry, K562 cells expressing full-length human PD-1

binding: binds
B1: MAB-19-0202 (antibody, V domains shown)
VH: QSVEESGGRLVTPGTPLTLTCTVSGFSLYSYNMGWVRQAPGKGLEYIGIISGGTIGHYASWAKGRFTISKTSSTTVDLKMTSLTTEDTATYFCARAFYDDYDYNVWGPGTLVTVSS
VL: AAVLTQTPSPVSAAVGGTVTISCQSSQSVYGNNQLSWYQQKPGQPPKLLIYQASKLETGVPSRFKGSGSGTQFTLTISDLESDDAATYYCAGGYSSSSDTTFGGGTEVVVK
notes: Chimeric rabbit/human antibody: rabbit variable regions cloned N-terminal of human IgG1 / kappa constant parts with L234A and L235A (LALA)

binding: binds
B2: RiboMab-19-0233 (antibody, V domains shown)
VH: QSLEESGGDLVKPGASLTLTCKASGIDFSSVYYMCWVRQAPGKGLEWIACIYVGSSGVSYYATWAKGRFTISKTSSTTVTLQMTSLTAADTATYFCARAGYVGAVYVTLTRLDLWGQGTLVTVSS
VL: AAVLTQTPSPVSAAVGGTVTISCQSSQSIYTNNDLAWYQQKPGQPPKLLIYDASKLASGVPSRFSGSGSGTQFTLTISGVQSDDAATYYCLGGYDDDADNAFGGGTEVVVK
notes: Tested as HEK293T/17 supernatant, concentration not determined
